The chains are these.
B1: humanized antibody complex #14 (antibody, human IgG1, V domains shown)
VH: DAELVKPGASVKISCKASGYTFTDHSIHWVQQKPEQGLEWIGYISPGNGNIKYNEKFKGKATLTADKSSSTAYMQLNSLTSEDSAVYFCKRSLGRGGPYYFDYWGQGTTVTVSS
VL: DIVLTQAAPSLPVTPGESVSISCRSSKSLLHSNGNTYLYWFLQRPGQSPQLLIYRMSNLASGVPDRFSGSGSGTAFTLRISRVEAEDVGVYYCMQHREYPVTFGSGPN
B2: Fab complex #14 (Fab, V domains shown)
VH: DAELVKPGASVKISCKASGYTFTDHSIHWVQQKPEQGLEWIGYISPGNGNIKYNEKFKGKATLTADKSSSTAYMQLNSLTSEDSAVYFCKRSLGRGGPYYFDYWGQGTTVTVSS
VL: DIVLTQAAPSLPVTPGESVSISCRSSKSLLHSNGNTYLYWFLQRPGQSPQLLIYRMSNLASGVPDRFSGSGSGTAFTLRISRVEAEDVGVYYCMQHREYPVTFGSGPN
B3: humanized antibody complex #9 (antibody, human IgG1, V domains shown)
VH: AVTLDESGGGLQTPGGALSLVCKASGFTFSGYDMLWVRQAPGKGLEWVAGIGSTGGGTDYGAAVKGRATISRDNGQSTVRLQLNNLRAEDTATYYCAKVAGGCNSGYCRDSPGSIDAWGHGTEVIVS
VL: AVTQQPASVSANPGETVKITCSGGGSRNYYGWYQQKSPGSVPVTVIYYDDQRPSNIPSRFSGALSGSTSTLTITGVQADDEAVYFCGSADSNTYEGSFGAGTTLTVL
B4: Fab complex #9 (Fab, V domains shown)
VH: AVTLDESGGGLQTPGGALSLVCKASGFTFSGYDMLWVRQAPGKGLEWVAGIGSTGGGTDYGAAVKGRATISRDNGQSTVRLQLNNLRAEDTATYYCAKVAGGCNSGYCRDSPGSIDAWGHGTEVIVS
VL: AVTQQPASVSANPGETVKITCSGGGSRNYYGWYQQKSPGSVPVTVIYYDDQRPSNIPSRFSGALSGSTSTLTITGVQADDEAVYFCGSADSNTYEGSFGAGTTLTVL
B5: humanized antibody complex #30 (antibody, human IgG1, V domains shown)
VH: GPDLVKPGASVKISCKASGYSFTAYYMHWVKQSHGKSLEWIGRVNPNNGGTTYNQKFKGKAILTVDKSSSTAYMELRSLTFEDSAVYYCARRIYYGYFDYWGQGTTVTVSS
VL: AFFAVSLGQRATISCKASQSVDYDGDSYMNWYQQKPGQPPKLLIYVASNLESGVPARFSGSGSGTDFTLNIHPVEEEDAATYYCQQSNEDPYTFGGGTKLEIKQ
B6: Fab complex #30 (Fab, V domains shown)
VH: GPDLVKPGASVKISCKASGYSFTAYYMHWVKQSHGKSLEWIGRVNPNNGGTTYNQKFKGKAILTVDKSSSTAYMELRSLTFEDSAVYYCARRIYYGYFDYWGQGTTVTVSS
VL: AFFAVSLGQRATISCKASQSVDYDGDSYMNWYQQKPGQPPKLLIYVASNLESGVPARFSGSGSGTDFTLNIHPVEEEDAATYYCQQSNEDPYTFGGGTKLEIKQ
B7: humanized antibody complex #36 (antibody, human IgG1, V domains shown)
VH: EVQLVESGGGLVQPGGSLRLSCAASGFSLSSHSLGWVRQAPGKGLEWIGDIRSGGSAYYANWAKGRFTISRDNSKNTLYLQMNSLRAEDTAVYYCTRTNGPSDLTNRLDLWGQGTLVTVSS
VL: QVLTQSPSSLSASVGDRVTINCQASQSLYNNENLAWFQQKPGKVPKRLIYGASTLASGVSSRFSGSGSGTEFTLTISSLQCEDFAIYYCLGEFSCGSADCFAFGGGTKVEIK
B8: humanized antibody complex #38 (antibody, human IgG1, V domains shown)
VH: EVQLVESGGGLVQPGGSLRLSCAASGFSLSSHSLGWVRQAPGKGLEWIGDIRSGGSAYYANWAKGRFTISRDNSKNTLYLQMNSLRAEDTAVYYCTRTNGPSDLTNRLDLWGQGTLVTVSS
VL: EQVLTQSPSSLSASVGDRVTINCQASQSLYNNENLAWFQQKPGKVPKRLIYGASTLASGVSSRFSGSGSGTEFTLTISNLQPEDFAIYYCLGEFSCGSADCFAFGGGTKVEIK
B9: Fab complex #37 (Fab, V domains shown)
VH: EVQLVESGGGLVQPGGSLRLSCAASGFSLSSHSLGWVRQAPGKGLEWIGDIRSGGSAYYANWAKGRFTISRDNSKNTLYLQMNSLRAEDTAVYFCTRTNGPSDLTNRLDLWGQGTLVTVSS
VL: QVLTQSPSSLSASVGDRVTINCQASQSLYNNENLAWFQQKPGKVPKRLIYGASTLASGVSSRFSGSGSGTEFTLTISSLQCEDFAIYYCLGEFSCGSADCFAFGGGTKVEIK
B10: humanized antibody complex #37 (antibody, human IgG1, V domains shown)
VH: EVQLVESGGGLVQPGGSLRLSCAASGFSLSSHSLGWVRQAPGKGLEWIGDIRSGGSAYYANWAKGRFTISRDNSKNTLYLQMNSLRAEDTAVYFCTRTNGPSDLTNRLDLWGQGTLVTVSS
VL: QVLTQSPSSLSASVGDRVTINCQASQSLYNNENLAWFQQKPGKVPKRLIYGASTLASGVSSRFSGSGSGTEFTLTISSLQCEDFAIYYCLGEFSCGSADCFAFGGGTKVEIK
B11: Fab complex #36 (Fab, V domains shown)
VH: EVQLVESGGGLVQPGGSLRLSCAASGFSLSSHSLGWVRQAPGKGLEWIGDIRSGGSAYYANWAKGRFTISRDNSKNTLYLQMNSLRAEDTAVYYCTRTNGPSDLTNRLDLWGQGTLVTVSS
VL: QVLTQSPSSLSASVGDRVTINCQASQSLYNNENLAWFQQKPGKVPKRLIYGASTLASGVSSRFSGSGSGTEFTLTISSLQCEDFAIYYCLGEFSCGSADCFAFGGGTKVEIK
B12: Fab complex #38 (Fab, V domains shown)
VH: EVQLVESGGGLVQPGGSLRLSCAASGFSLSSHSLGWVRQAPGKGLEWIGDIRSGGSAYYANWAKGRFTISRDNSKNTLYLQMNSLRAEDTAVYYCTRTNGPSDLTNRLDLWGQGTLVTVSS
VL: EQVLTQSPSSLSASVGDRVTINCQASQSLYNNENLAWFQQKPGKVPKRLIYGASTLASGVSSRFSGSGSGTEFTLTISNLQPEDFAIYYCLGEFSCGSADCFAFGGGTKVEIK
B13: Fab complex #39 (Fab, V domains shown)
VH: EVQLVESGGGLVQPGGSLRLSCAASGFSLSSHSLGWVRQAPGKGLEWIGDIRSGGSAYYANWAKGRFTISRDNSKNTLYLQMNSLRAEDTAVYFCTRTNGPSDLTNRLDLWGQGTLVTVSS
VL: EIVLTQSPSSLSASVGDRVTINCQASQSLYNNENLAWFQQKPGKVPKRLIYGASTLASGVSSRFSGSGSGTEFTLTISNLQPEDFATYYCLGEFSCGSADCFAFGGGTKVEIK
B14: humanized antibody complex #13 (antibody, human IgG1, V domains shown)
VH: GAELVRSGASVKMSCKASGYSFTDYNMYWVKQTPGQGLEWIGYIYPGNGGTNYNQKFKGKATLTADTSSSTAYMQISSLTSEDSAVYFCARDYDDGGYAMDYWGQGTTVTVSS
VL: DIQMTQSPASLSASVGETVTITCRASGNIHNYLTWYQQKQGKSPQLLVYNAKTLADGVPSRFSGSGSGTQYSLKINRLQPEDFGSYYCQHFWNIPWTFGGGTKLNSR
B15: Fab complex #13 (Fab, V domains shown)
VH: GAELVRSGASVKMSCKASGYSFTDYNMYWVKQTPGQGLEWIGYIYPGNGGTNYNQKFKGKATLTADTSSSTAYMQISSLTSEDSAVYFCARDYDDGGYAMDYWGQGTTVTVSS
VL: DIQMTQSPASLSASVGETVTITCRASGNIHNYLTWYQQKQGKSPQLLVYNAKTLADGVPSRFSGSGSGTQYSLKINRLQPEDFGSYYCQHFWNIPWTFGGGTKLNSR

These are yes or no findings as the source states them, for the method shown. Binding can be weak; no strength is given.

This test deals with CAPRIN-1 protein. The test is described as follows: ELISA.
As to B1, the binding entry is recorded as “binds”.

On to B2, for which the binding entry is recorded as “binds”.

For B3, the binding result is “binds”.

Consider B4, for which the binding entry was “binds”.

Turning to B5, the binding entry was “binds”.

For B6, the binding result is reported as “binds”.

In the case of B7, the binding entry is recorded as “binds”.

Take B8: the binding result was “binds”.

Turning to B9, the binding entry was “binds”.

With B10, the binding result was “binds”.

Consider B11, for which the binding result was “binds”.

Consider B12, for which the binding entry is “binds”.

For the molecule B13, the binding result was “binds”.

Consider B14, for which the binding result is given as “binds”.

Take B15: the binding entry is listed as “binds”.

The record behind these values is patent publication EP4778539A1.
